Reference: paper PMC5306359
These are yes or no findings as the source states them, for the method shown. Binding seen in cells or lysates may run through a third protein. Some entries that bind do so weakly or less than the wild type.

By UniProt entry, the sequences of proteins in these tests, tags left out.
UniProt P06537: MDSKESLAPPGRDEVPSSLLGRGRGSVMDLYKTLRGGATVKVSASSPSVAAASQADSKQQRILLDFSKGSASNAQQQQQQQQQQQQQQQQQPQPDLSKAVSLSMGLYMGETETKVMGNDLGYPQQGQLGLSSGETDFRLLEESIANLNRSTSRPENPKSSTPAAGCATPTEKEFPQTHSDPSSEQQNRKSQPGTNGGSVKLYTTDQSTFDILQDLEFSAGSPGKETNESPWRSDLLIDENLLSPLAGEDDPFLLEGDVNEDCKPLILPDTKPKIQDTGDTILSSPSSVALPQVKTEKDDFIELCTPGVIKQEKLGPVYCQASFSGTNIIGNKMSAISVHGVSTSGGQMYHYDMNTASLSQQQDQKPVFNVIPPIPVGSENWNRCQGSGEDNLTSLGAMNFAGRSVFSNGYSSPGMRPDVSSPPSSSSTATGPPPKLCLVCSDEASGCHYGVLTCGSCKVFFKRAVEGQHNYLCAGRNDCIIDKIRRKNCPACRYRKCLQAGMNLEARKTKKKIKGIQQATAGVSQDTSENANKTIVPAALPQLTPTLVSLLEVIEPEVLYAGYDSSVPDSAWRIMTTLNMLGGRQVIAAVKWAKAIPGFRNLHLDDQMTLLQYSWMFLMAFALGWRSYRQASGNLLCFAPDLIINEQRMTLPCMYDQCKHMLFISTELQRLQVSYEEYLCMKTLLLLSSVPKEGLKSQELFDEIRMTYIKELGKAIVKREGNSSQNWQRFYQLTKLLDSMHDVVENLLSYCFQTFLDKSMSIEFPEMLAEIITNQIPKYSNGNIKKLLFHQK
UniProt O54918: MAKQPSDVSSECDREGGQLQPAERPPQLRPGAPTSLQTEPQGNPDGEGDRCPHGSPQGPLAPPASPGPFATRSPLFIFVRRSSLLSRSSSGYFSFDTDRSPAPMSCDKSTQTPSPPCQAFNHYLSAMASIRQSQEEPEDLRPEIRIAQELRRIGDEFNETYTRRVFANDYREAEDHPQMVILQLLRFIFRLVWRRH

B1: Bak (protein, UniProt O08734 1-209)
chain: MASGQGPGPPKVGCDESPSPSEQQVAQDTEEVFRSYVFYLHQQEQETQGAAAPANPEMDNLPLEPNSILGQVGRQLALIGDDINRRYDTEFQNLLEQLQPTAGNAYELFTKIASSLFKSGISWGRVVALLGFGYRLALYVYQRGLTGFLGQVTCFLADIILHHYIARWIAQRGGWVAALNFRRDPILTVMVIFGVVLLGQFVVHRFFRS

Each molecule was assayed against glucocorticoid receptor (mouse (endogenous in BALB/c thymocytes)) (UniProt P06537) (assay: co-IP; anti-GR (clone 8E9) immunoprecipitation overnight, Protein-G, from cytoplasmic and mitochondrial fractions of unseparated mouse thymocytes treated 30 min with DX or vehicle; western blot for Bak, Bcl-xL, Bim; washed five times in PBS).

binding, binds:
Bcl-xL (from UniProt Q64373-1 1-233)
Bim (from UniProt O54918 1-196)
B1
